Experiment [1] concerns the target eukaryotic translation initiation factor 3 subunit A (EIF3A) (human (endogenous in hUCMSCs)) (UniProt Q14152). Nature of the experiment: co-IP; hUCMSC lysate (RIPA buffer); magnetic beads precoated with anti-EIF3A or anti-METTL3 antibody; eluates blotted with anti-NOP2 (and anti-GAPDH); cells with or without METTL3 adenovirus, osteogenic induction for 7 days.
Experiment [2] has as its target methyltransferase-like 3 (METTL3) (human (endogenous in hUCMSCs)) (UniProt Q86U44). The description is as above.

Amino acid sequences for entries named in this document (tags omitted).
UniProt Q14152: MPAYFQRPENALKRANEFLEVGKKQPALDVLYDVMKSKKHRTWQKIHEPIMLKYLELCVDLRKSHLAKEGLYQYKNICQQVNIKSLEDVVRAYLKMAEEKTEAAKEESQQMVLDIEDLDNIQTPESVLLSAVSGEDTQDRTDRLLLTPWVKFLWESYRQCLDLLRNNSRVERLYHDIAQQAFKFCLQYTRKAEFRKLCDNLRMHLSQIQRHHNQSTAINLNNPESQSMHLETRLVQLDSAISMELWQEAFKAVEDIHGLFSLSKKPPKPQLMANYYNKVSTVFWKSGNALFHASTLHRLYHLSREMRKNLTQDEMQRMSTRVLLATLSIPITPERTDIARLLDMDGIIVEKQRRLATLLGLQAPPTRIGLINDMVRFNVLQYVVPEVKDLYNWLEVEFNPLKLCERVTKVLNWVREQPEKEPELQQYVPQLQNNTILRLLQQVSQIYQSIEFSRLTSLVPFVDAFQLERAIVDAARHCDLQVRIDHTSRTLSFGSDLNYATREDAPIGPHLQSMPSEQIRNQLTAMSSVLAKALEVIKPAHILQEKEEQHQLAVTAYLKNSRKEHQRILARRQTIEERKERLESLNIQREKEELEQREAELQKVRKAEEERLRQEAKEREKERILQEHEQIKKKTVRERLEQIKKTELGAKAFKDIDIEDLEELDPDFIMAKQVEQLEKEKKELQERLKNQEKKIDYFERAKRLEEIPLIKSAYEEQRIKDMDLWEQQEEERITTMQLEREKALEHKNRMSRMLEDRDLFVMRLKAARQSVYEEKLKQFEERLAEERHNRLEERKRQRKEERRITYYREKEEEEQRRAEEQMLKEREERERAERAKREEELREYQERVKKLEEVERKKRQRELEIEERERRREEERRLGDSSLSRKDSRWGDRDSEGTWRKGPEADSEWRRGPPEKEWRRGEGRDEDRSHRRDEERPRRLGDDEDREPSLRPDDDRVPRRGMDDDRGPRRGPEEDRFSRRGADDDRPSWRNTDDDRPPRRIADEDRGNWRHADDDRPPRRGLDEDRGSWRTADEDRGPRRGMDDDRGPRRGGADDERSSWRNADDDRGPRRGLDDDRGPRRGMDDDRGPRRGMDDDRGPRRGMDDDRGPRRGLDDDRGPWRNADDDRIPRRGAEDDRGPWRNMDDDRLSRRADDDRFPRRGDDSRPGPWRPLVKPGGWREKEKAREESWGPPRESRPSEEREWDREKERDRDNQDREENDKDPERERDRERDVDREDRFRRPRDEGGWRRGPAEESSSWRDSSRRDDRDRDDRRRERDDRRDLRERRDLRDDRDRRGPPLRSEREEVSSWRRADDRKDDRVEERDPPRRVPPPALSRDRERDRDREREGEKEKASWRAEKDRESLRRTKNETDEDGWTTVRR
UniProt Q86U44: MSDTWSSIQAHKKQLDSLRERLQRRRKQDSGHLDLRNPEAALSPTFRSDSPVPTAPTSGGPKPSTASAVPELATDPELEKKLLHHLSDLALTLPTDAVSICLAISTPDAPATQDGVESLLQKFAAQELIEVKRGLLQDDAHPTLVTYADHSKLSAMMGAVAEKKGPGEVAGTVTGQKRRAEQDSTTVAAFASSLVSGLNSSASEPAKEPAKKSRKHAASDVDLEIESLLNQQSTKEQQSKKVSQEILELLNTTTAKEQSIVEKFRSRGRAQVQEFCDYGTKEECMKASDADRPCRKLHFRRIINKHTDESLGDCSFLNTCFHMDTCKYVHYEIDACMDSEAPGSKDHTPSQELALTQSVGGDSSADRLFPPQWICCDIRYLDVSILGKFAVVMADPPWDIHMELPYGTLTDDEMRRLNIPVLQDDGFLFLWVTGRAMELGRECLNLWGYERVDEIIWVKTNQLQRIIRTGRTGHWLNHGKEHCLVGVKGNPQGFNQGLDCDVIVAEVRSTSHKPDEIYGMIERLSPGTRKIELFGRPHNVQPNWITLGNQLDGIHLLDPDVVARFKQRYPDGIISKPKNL

These are yes or no findings as the source states them, for the method shown. In cells and extracts the contact can be indirect. Some binding calls cover weakened binding; strength is not graded here.

B1: nucleolar protein 2 (NOP2) (protein, UniProt P46087 1-812)
chain: MGRKLDPTKEKRGPGRKARKQKGAETELVRFLPAVSDENSKRLSSRARKRAAKRRLGSVEAPKTNKSPEAKPLPGKLPKGISAGAVQTAGKKGPQSLFNAPRGKKRPAPGSDEEEEEEDSEEDGMVNHGDLWGSEDDADTVDDYGADSNSEDEEEGEALLPIERAARKQKAREAAAGIQWSEEETEDEEEEKEVTPESGPPKVEEADGGLQINVDEEPFVLPPAGEMEQDAQAPDLQRVHKRIQDIVGILRDFGAQREEGRSRSEYLNRLKKDLAIYYSYGDFLLGKLMDLFPLSELVEFLEANEVPRPVTLRTNTLKTRRRDLAQALINRGVNLDPLGKWSKTGLVVYDSSVPIGATPEYLAGHYMLQGASSMLPVMALAPQEHERILDMCCAPGGKTSYMAQLMKNTGVILANDANAERLKSVVGNLHRLGVTNTIISHYDGRQFPKVVGGFDRVLLDAPCSGTGVISKDPAVKTNKDEKDILRCAHLQKELLLSAIDSVNATSKTGGYLVYCTCSITVEENEWVVDYALKKRNVRLVPTGLDFGQEGFTRFRERRFHPSLRSTRRFYPHTHNMDGFFIAKFKKFSNSIPQSQTGNSETATPTNVDLPQVIPKSENSSQPAKKAKGAAKTKQQLQKQQHPKKASFQKLNGISKGADSELSTVPSVTKTQASSSFQDSSQPAGKAEGIREPKVTGKLKQRSPKLQSSKKVAFLRQNAPPKGTDTQTPAVLSPSKTQATLKPKDHHQPLGRAKGVEKQQLPEQPFEKAAFQKQNDTPKGPQPPTVSPIRSSRPPPAKRKKSQSRGNSQLLLS
As for B1, the binding result in experiment [1] and in experiment [2] was “binds” throughout.

The record behind these values is paper PMC10932744.
